No constants are given. Whether binding was seen depends on the method and setting. Some results given as binding are weak or reduced against the parent protein; the word gives no strength.
Tests used:
Assay in all cases: flow cytometry on transfected Hek-293T cells
[1] = molecular target: T1, CD39 mutant 12 (human) (UniProt P49961)
T1 sequence: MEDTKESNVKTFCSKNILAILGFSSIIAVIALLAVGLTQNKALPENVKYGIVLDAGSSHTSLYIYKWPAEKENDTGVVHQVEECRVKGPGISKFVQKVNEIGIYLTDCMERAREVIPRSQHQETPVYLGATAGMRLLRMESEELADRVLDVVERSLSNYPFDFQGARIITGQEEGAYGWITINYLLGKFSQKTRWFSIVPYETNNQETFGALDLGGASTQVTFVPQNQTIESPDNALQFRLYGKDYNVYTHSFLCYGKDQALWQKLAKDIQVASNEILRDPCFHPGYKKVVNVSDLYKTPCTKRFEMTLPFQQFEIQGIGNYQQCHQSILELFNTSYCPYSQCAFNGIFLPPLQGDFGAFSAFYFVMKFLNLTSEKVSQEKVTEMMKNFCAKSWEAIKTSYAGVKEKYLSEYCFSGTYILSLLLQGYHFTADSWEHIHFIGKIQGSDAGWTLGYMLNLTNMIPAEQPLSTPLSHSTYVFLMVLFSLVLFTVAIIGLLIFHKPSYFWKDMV

[2] = molecular target: T2, CD39 mutant 13 (human) (UniProt P49961)
T2 sequence: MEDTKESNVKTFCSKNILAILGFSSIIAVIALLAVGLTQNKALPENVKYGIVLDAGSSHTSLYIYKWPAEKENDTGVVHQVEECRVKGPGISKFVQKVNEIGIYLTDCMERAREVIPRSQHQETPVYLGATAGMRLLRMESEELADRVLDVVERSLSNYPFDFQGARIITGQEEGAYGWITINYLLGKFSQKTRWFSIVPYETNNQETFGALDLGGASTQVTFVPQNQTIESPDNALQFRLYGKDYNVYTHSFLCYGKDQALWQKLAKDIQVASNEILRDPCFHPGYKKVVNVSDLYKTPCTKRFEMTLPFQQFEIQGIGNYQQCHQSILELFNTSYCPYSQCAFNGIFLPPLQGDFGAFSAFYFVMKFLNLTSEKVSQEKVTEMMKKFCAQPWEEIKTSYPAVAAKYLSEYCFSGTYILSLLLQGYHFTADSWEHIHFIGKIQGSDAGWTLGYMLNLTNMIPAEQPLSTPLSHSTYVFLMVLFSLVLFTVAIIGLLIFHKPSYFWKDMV

[3] = molecular target: T3, CD39 mutant 18 (human) (UniProt P49961)
T3 sequence: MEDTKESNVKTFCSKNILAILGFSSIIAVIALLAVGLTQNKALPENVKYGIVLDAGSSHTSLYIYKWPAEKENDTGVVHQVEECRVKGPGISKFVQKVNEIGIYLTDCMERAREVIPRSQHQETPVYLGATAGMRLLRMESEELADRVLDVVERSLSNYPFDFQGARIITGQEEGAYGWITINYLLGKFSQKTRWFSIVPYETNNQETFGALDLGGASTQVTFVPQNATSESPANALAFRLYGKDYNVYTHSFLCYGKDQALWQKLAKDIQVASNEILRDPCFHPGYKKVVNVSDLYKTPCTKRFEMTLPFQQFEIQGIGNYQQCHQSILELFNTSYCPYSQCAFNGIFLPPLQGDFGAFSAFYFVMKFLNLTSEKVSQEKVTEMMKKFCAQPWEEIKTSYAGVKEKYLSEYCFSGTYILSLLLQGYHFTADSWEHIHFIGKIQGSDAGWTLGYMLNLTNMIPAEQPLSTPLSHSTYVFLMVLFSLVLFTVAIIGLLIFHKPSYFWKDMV

[4] = molecular target: T4, CD39 mutant 4 (human) (UniProt P49961)
T4 sequence: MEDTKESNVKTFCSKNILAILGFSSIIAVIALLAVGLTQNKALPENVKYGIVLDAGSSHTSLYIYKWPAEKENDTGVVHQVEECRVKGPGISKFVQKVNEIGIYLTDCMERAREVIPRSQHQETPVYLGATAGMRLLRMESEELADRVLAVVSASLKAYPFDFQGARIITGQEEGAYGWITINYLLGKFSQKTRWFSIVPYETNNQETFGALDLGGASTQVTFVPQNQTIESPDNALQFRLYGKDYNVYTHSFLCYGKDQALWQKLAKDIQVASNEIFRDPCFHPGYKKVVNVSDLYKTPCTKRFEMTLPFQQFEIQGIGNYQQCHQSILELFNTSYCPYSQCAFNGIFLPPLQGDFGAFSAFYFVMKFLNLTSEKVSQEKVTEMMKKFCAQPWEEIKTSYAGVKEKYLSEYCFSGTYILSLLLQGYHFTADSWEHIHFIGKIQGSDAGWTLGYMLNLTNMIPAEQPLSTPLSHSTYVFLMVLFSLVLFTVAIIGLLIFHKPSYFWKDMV

[5] = molecular target: T5, CD39 mutant 6 (human) (UniProt P49961)
T5 sequence: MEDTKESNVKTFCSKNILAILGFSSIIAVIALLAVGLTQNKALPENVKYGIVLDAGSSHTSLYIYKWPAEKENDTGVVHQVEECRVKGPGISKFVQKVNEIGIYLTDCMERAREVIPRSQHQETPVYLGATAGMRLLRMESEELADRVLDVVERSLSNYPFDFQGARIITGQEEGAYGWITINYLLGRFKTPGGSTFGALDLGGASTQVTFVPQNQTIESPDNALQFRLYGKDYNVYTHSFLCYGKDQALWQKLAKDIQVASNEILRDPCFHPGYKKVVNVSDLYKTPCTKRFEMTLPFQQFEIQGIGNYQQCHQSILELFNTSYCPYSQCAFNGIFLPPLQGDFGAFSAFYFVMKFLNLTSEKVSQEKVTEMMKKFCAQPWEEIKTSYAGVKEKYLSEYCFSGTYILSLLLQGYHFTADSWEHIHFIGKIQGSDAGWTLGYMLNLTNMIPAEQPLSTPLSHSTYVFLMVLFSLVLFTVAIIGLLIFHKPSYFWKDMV

Measured: binding

B1: antibody I-399 (antibody, V domains shown)
VH: PVQLQQPGAEVVMPGASVKLSCKASGYTFTSFWMNWMRQRPGQGLEWIGEIDPSDFYTNSNQRFKGKATLTVDKSSSTAYMQLSSLTSEDSAVYFCARGDFGWYFDVWGTGTSVTVSS
VL: EIVLTQSPTTMTSSPGEKITFTCSASSSINSNYLHWYQQKPGFSPKLLIYRTSNLASGVPTRFSGSGSGTSYSLTIGTMEAEDVATYYCQQGSSLPRTFGGGTKLEIK
binds: [1] | [2] | [3] | [4] | [5]

Source: patent US20190218304A1, “POTENTIATING THE EFFECT OF ATP RELEASE” (INNATE PHARMA, priority 2017, published 2019)
